Experimental data: the supplement of paper PMC10060354, “Discovery of a small molecule ligand of FRS2 that inhibits invasion and tumor growth” (Cellular Oncology, 2022)
Single values are uncertain, as repeats are few or missing.

The chains behind the UniProt entries cited, without tags or fusion partners. Where a name states a change or a piece, a line headed by the entry shows the natural chain unless it says otherwise.
UniProt Q9HC21: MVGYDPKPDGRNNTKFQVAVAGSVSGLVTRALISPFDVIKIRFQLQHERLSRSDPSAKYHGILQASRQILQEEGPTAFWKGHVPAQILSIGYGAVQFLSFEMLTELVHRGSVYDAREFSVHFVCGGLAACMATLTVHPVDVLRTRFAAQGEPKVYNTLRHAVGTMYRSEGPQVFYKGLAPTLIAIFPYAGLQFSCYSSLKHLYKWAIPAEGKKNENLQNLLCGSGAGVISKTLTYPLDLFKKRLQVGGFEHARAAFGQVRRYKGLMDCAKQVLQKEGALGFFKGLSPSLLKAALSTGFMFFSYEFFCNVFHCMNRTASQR
UniProt P42566: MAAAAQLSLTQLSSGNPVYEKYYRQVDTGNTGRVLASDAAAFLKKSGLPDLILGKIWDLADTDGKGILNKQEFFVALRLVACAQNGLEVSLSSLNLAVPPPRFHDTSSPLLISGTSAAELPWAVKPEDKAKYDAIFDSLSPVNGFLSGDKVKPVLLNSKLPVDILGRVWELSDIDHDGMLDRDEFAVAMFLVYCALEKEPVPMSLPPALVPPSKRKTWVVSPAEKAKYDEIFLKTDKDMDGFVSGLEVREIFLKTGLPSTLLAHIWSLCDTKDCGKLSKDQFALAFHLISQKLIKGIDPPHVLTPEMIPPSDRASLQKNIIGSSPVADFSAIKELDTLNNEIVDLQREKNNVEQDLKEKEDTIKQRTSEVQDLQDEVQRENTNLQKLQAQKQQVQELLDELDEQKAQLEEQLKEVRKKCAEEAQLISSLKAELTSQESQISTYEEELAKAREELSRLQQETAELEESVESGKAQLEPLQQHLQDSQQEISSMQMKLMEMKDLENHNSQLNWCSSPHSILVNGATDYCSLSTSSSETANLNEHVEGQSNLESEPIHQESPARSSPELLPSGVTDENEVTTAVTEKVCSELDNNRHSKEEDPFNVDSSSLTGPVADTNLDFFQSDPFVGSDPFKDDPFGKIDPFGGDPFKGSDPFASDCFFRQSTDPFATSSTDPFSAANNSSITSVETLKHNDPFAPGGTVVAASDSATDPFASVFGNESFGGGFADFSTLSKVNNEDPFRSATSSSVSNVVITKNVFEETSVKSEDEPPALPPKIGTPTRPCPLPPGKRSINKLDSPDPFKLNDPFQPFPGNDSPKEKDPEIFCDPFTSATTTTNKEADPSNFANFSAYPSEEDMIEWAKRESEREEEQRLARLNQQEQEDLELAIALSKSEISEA
UniProt Q5TKA1: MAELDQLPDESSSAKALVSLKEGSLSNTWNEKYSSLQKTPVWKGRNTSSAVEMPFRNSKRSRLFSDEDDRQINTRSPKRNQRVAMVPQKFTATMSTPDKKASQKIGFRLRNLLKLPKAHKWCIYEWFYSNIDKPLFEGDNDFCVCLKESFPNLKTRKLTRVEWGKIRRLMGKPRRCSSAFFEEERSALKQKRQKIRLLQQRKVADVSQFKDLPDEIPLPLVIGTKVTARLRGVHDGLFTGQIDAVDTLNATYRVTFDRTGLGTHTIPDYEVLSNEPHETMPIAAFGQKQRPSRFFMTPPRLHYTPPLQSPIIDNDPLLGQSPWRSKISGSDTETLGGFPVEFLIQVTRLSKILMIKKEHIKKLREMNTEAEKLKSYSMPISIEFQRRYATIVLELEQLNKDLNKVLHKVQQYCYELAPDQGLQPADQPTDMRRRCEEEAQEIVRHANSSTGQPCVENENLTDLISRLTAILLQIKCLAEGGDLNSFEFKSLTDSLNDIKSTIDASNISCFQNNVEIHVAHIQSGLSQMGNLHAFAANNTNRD
UniProt Q9Y333: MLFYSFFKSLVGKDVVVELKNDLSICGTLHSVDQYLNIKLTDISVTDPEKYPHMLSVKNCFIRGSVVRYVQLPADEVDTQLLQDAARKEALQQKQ
UniProt O75326: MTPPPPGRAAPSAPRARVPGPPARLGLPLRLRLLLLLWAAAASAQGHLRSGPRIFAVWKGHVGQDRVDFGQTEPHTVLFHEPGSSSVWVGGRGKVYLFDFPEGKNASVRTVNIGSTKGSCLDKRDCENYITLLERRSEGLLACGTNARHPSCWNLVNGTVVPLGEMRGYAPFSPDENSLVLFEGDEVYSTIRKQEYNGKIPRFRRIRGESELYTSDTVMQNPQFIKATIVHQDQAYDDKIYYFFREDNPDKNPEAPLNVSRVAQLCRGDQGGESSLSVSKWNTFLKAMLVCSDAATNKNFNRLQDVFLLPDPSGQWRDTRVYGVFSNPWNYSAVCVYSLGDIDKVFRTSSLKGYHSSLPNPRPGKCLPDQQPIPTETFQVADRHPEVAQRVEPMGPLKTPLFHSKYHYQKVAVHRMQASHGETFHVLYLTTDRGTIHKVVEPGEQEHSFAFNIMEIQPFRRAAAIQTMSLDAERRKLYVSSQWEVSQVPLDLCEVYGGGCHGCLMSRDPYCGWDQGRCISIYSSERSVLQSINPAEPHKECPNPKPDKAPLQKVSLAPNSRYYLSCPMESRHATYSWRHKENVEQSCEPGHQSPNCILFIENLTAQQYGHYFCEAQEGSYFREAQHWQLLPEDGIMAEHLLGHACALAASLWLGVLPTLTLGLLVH
UniProt Q9NZQ7, whole entry: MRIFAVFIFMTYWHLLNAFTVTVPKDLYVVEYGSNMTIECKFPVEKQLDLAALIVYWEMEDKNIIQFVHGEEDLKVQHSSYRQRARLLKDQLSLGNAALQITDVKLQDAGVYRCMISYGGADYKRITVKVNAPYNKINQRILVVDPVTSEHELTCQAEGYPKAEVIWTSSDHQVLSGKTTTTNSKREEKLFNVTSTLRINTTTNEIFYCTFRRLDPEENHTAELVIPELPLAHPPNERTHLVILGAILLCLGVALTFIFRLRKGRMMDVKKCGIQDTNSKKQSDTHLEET
UniProt O15481: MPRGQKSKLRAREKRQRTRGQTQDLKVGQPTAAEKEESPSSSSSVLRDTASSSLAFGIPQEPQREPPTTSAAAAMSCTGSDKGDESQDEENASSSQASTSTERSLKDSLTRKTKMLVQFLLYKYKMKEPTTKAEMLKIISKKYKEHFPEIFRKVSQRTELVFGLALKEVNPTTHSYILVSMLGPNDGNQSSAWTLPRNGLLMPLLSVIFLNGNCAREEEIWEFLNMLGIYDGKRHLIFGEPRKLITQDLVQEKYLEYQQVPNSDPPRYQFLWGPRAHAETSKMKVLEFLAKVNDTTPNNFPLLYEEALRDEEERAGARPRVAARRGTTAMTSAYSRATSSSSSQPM
UniProt Q8N6L1: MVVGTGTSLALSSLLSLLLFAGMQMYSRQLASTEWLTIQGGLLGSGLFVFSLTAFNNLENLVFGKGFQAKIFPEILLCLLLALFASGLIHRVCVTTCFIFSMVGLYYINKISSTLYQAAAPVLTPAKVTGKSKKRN
UniProt Q99575: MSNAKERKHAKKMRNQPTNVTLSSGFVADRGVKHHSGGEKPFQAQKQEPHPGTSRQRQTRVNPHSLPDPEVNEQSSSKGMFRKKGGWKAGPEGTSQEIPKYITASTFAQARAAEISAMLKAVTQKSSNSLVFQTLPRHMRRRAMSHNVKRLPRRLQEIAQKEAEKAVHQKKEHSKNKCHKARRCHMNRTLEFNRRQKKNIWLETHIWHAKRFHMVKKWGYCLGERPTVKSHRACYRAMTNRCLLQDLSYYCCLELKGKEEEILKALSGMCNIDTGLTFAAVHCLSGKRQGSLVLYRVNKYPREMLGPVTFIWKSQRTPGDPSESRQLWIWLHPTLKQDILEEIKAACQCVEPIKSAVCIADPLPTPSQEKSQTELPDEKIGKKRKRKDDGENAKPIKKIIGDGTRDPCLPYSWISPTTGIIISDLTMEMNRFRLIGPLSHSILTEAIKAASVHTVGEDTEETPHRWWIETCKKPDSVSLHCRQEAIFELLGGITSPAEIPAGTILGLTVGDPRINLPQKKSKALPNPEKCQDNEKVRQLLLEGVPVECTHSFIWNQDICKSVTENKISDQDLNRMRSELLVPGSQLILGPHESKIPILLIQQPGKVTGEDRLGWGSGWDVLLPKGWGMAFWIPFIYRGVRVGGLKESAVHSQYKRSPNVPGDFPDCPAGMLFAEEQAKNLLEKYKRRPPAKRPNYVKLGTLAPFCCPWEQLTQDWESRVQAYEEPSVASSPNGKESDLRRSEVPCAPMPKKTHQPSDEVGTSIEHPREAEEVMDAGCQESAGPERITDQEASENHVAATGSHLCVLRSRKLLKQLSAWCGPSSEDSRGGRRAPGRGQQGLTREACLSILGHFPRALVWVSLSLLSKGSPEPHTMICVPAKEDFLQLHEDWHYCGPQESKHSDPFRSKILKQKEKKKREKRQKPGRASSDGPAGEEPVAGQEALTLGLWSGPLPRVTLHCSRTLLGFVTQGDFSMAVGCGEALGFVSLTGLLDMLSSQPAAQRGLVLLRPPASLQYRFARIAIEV
UniProt Q96IG2: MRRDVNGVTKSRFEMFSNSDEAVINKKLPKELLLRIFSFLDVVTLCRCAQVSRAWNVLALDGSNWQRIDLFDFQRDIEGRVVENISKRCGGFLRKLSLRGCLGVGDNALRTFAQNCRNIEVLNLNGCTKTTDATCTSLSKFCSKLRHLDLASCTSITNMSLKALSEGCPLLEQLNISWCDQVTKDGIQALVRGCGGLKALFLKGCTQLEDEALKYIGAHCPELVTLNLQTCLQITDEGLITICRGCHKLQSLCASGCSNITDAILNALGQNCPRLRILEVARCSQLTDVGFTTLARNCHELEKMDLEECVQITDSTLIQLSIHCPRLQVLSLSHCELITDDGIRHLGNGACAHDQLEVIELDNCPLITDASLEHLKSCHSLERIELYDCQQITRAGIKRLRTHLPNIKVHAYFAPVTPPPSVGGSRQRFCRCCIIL
UniProt P13747, whole entry: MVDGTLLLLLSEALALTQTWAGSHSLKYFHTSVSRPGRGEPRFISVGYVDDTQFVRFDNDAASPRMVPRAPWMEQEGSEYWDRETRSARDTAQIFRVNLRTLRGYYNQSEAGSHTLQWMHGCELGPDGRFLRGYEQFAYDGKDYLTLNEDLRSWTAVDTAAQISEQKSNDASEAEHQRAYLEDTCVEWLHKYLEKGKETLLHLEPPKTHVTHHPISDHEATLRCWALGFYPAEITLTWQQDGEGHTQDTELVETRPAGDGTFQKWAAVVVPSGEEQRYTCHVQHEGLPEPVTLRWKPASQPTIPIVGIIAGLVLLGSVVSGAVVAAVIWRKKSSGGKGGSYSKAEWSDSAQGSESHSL
UniProt Q14C86: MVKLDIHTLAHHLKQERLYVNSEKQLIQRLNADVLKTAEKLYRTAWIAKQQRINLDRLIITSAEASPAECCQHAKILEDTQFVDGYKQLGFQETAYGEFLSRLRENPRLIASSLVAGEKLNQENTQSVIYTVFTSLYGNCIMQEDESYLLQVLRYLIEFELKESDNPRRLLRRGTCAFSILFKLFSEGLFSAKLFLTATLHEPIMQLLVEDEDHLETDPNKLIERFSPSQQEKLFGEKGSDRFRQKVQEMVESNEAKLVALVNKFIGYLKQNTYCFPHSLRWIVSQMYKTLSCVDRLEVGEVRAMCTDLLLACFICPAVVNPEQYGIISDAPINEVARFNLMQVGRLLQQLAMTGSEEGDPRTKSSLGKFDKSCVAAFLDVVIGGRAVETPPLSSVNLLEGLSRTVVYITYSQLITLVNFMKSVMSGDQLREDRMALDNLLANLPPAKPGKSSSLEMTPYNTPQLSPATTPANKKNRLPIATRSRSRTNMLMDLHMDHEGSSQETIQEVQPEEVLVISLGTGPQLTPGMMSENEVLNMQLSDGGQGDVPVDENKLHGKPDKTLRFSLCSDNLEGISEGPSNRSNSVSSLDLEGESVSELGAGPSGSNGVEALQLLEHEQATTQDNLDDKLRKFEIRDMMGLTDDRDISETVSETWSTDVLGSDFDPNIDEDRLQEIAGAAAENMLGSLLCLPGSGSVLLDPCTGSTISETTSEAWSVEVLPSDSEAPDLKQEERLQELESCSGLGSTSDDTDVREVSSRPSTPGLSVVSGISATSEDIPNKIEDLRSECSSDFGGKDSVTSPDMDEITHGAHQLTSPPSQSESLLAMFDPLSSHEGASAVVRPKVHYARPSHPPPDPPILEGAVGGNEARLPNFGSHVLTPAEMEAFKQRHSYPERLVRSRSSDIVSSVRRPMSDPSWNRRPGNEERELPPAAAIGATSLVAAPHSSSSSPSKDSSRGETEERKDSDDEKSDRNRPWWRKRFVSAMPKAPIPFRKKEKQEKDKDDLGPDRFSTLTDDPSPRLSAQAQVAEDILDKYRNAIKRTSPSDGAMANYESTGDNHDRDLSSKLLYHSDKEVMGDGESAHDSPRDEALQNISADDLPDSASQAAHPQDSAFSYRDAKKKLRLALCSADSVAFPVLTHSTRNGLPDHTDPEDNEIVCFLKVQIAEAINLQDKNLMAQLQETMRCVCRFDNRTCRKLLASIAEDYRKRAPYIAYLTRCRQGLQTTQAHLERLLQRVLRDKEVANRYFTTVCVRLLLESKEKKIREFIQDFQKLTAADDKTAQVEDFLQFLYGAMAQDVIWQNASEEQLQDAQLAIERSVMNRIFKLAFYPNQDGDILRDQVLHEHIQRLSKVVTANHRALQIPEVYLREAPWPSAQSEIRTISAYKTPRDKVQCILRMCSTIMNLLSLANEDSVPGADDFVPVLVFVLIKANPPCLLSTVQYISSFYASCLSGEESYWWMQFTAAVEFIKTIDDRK

Compound: [O-][N+](C(C1=C(C(O)=C2)NC(C(C=C3)=CC=C3Cl)C4C1C=CC4)=C2Cl)=O
Assay: melting temperature shift (compound 7 minus DMSO); higher = compound stabilises the protein
Settings: 10 µM
Experimental: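 Thermal proteome profiling (TMT mass spectrometry) in intact DAOY medulloblastoma cells or DAOY lysates treated with 10 µM compound 7 or DMSO, heated at 10 temperatures from 40.5 to 73.8 °C for 3 min. Melting curves were fitted with the Bioconductor TPP package, and the melting point difference between compound and vehicle is reported per protein (single curve per condition).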

[1] = system: intact DAOY cells, treatment time: 90 min, 37 °C
[2] = system: DAOY cell lysate, treatment time: 20 min, 4 °C

Target	melting temperature shift [1] [°C]	melting temperature shift [2] [°C]
SLC25A19 (UniProt Q9HC21)	1.52	
NUDT12 (UniProt Q9BQG2)	-2.28	-1.4
CCDC58 (UniProt Q4VC31)	-3.94	-0.835
ADH5 (UniProt P11766)	2.44	-0.456
RNF20 (UniProt Q5VTR2)	1.09	-0.0355
MRPL38 (UniProt Q96DV4)		1
SPATS2L (UniProt Q9NUQ6)	1.71	0.216
UniProt Q9UHV7		-2.17
NSMCE3 (UniProt Q96MG7)	0.402	0.282
TSSC4 (UniProt Q9Y5U2)		2.61
RACGAP1 (UniProt Q9H0H5)	0.232	-0.206
CTNND1 (UniProt O60716)	0.0115	1.38
PSMD5 (UniProt Q16401)	-0.643	
BAG2 (UniProt O95816)	0.675	-0.442
ITPR3 (UniProt Q14573)	-0.822	2.65
YTHDF3 (UniProt Q7Z739)	-0.0674	-0.675
ATP6V0D1 (UniProt P61421)	-0.299	1.31
MIER1 (UniProt Q8N108)	2.21	-0.455
UniProt Q00G26	-0.602	
UniProt Q5BJH2	0.878	3.85
TPI1 (UniProt P60174)	0.099	-1.48
UniProt Q2QD12	2.04	
ACP1 (UniProt P24666)	0.744	-0.473

Target	melting temperature shift [1] [°C]	melting temperature shift [2] [°C]
SYMPK (UniProt Q92797)	-2.29	-0.457
SLC7A6 (UniProt Q92536)	-1.8	
METTL14 (UniProt Q9HCE5)	0.419	0.435
CHSY1 (UniProt Q86X52)		2.91
PLXNB2 (UniProt O15031)	-0.00288	0.961
CCDC137 (UniProt Q6PK04)		0.702
EPS15 (UniProt P42566)	0.53	-0.706
FAM91A1 (UniProt Q658Y4)	0.416	-0.391
LIN9 (UniProt Q5TKA1)	1.57	
UNK (UniProt Q9C0B0)	0.886	-0.341
DCAF13 (UniProt Q9NV06)	-0.991	-0.287
NUP155 (UniProt O75694)	-0.0935	-0.188
LSM2 (UniProt Q9Y333)	0.546	0.144
WDR12 (UniProt Q9GZL7)	0.63	0.908
OSBPL8 (UniProt Q9BZF1)	-0.663	1.87
AACS (UniProt Q86V21)	0.368	-1.24
POLR1B (UniProt Q9H9Y6)	-0.597	-0.795
DDX28 (UniProt Q9NUL7)		4.68
C10ORF76 (UniProt Q5T2E6)	-0.267	-2.33
UniProt Q8N4F7	-0.598	
DDT (UniProt P30046)	-0.0656	-1.25
SMTN (UniProt P53814)	-0.868	-0.443
UniProt O75326		0.549

Some of the entries so far, with bars between the fields:
Target | melting temperature shift [1] [°C] | melting temperature shift [2] [°C]
UNK (UniProt Q9C0B0) | 0.886 | -0.341
DCAF13 (UniProt Q9NV06) | -0.991 | -0.287
NUP155 (UniProt O75694) | -0.0935 | -0.188
LSM2 (UniProt Q9Y333) | 0.546 | 0.144
WDR12 (UniProt Q9GZL7) | 0.63 | 0.908

Further entries

Target	melting temperature shift [1] [°C]	melting temperature shift [2] [°C]
UniProt Q9NZQ7	-0.325	2.95
SND1 (UniProt Q7KZF4)	0.0654	-0.228
UniProt O15481	-0.428	
SHQ1 (UniProt Q6PI26)	1.67	0.398
UniProt Q8IW00	-1.66	
LMF2 (UniProt Q9BU23)	-0.966	
UniProt Q8N6L1	-0.329	0.628
UniProt P55290	2.26	1.49
UniProt Q9Y2R5	-0.976	-0.204
HAUS7 (UniProt Q99871)		3.13
HIRIP3 (UniProt Q9BW71)	4.6	1.41
UniProt Q7L4P6	0.413	
UniProt Q92959	-2.5	3.17
PLXNA2 (UniProt O75051)		0.888
RPL13 (UniProt P26373)	-0.768	0.692
MRPS2 (UniProt Q9Y399)	0.0265	-0.128
UniProt Q8IZP2	0.122	
CREBBP (UniProt Q92793)	-0.358	3.21
UniProt O14770		-0.558
IMMT (UniProt Q16891)	-0.183	1.73
POP1 (UniProt Q99575)	-0.389	-0.174
MBNL1 (UniProt Q9NR56)	-0.601	-0.414
TMCO1 (UniProt Q9UM00)	0.329	1.46

Target	melting temperature shift [1] [°C]	melting temperature shift [2] [°C]
UniProt Q8WUJ0		-2.63
GAN (UniProt Q9H2C0)		-0.441
FBXL20 (UniProt Q96IG2)	-0.464	-1.07
UniProt P13747	0.613	
ZC3H8 (UniProt Q8N5P1)	-1.04	-1.08
BPHL (UniProt Q86WA6)	0.522	0.454
ARHGEF12 (UniProt Q9NZN5)	-3.13	-0.182
GAPVD1 (UniProt Q14C86)	-0.59	-0.972
UniProt Q13901	1.2	0.266
XRN2 (UniProt Q9H0D6)	0.427	0.325
BOP1 (UniProt Q14137)	1.83	0.472
UniProt Q9NXF1	1.56	-0.112
UniProt Q495N2	0.181	
UniProt Q13595	0.763	2.14
PI4K2B (UniProt Q8TCG2)		0.242
PLA2G4A (UniProt P47712)	-1.31	-0.782
LRR1 (UniProt Q96L50)		-0.591
UniProt P09016		4.36
MED27 (UniProt Q6P2C8)	0.0589	-0.0662
MRPS35 (UniProt P82673)	-1.21	0.681
UniProt Q04844	-1.66	
UniProt P35556	-0.284	
